Reference: US8158656B2, “2-indolinone derivatives as multi-target protein kinase inhibitors and histone deacetylase inhibitors” (Shenzhen Chipscreen Biosciences Ltd., priority 2008, dated 2012)

Test system: total HDAC enzyme
Experiment: Total HDAC enzyme activity, HDAC Fluorimetric Assay (HeLa extract)
Format: biochemical, human
Experimental: Measurement of in vitro inhibition of total HDAC enzyme activity:
The in vitro inhibition of total HDAC enzyme was determined by HDAC Fluorimetric Assay/Drug Discovery Kit (BIOMOL) according to manufacture's instruction. • 1. Add Assay buffer, diluted trichostatin A or test inhibitor to appropriate wells of the microtiter plate. Following table lists examples of various assay types and the additions required for each test.
• 2. Add diluted HeLa extract or other HDAC sample to all wells except those that are to be “No Enzyme Controls” (Blank). • 3. Allow diluted Fluor de Lys™ Substrate and the samples in the microtiter plate to equilibrate to assay temperature (25° C.). • 4. Initiate HDAC reactions by adding diluted substrate (25 μl) to each well and mixing thoroughly. • 5. Allow HDAC reactions to proceed for desired length of time and then stop them by addition of Fluor de Lys™ Developer (50 μl). Incubate plate at room temperature (25° C.) for 10-15 min. • 6. Read samples in a microtiter-plate reading fluorimeter capable of excitation at a wavelength in the range 350-380 nm and detection of emitted light in the range 440-460 nm. Measurement of in vivo inhibition of HDAC subtype activity: […]

Which “% inhibition of total HDAC enzyme activity at 30 μM” value does the source give for `O=C(CCCCCCC(=O)Nc1ccccc1)NO` [SAHA, suberoylanilide hydroxamic acid, reference compound] here?
Its value is 95.7%.
